From the supplement of paper PMC8728848
The list shows a part of the results.

Legend:
Assay in all cases: glycan array binding signal (z-score within array); higher = stronger binding
Conditions in all cases: glycan notation: IUPAC condensed, linker removed
[1] = target: Fuc(a1-2)Gal(b1-4)GlcNAc(b1-3)Gal(b1-4)GlcNAc(b1-3)Gal(b1-4)GlcNAc
Outline: (§1)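 Glycan array data came from 3228 arrays in the Consortium for Functional Glycomics database, and only arrays with an available protein sequence were kept. Glycan names were put into IUPAC-condensed notation, and columns mapping to the same glycan were averaged. The binding signal is a within-array Z-score, averaged across arrays of one protein sequence run at different concentrations or buffers and across linkers. A negative Z-score can be read as non-binding.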

[2] = target: Fuc(a1-2)Gal(b1-4)GlcNAc(b1-3)GalNAc
Outline: as §1

[3] = target: Fuc(a1-2)Gal(b1-4)GlcNAc(b1-3)[Fuc(a1-2)Gal(b1-4)GlcNAc(b1-6)]GalNAc
Outline: as §1

[4] = target: Fuc(a1-2)Gal(b1-4)GlcNAc(b1-3)[Fuc(a1-3)[Gal(b1-4)]GlcNAc(b1-6)]Gal(b1-4)Glc
Outline: as §1

[5] = target: Fuc(a1-2)Gal(b1-4)GlcNAc(b1-6)GalNAc
Outline: as §1

[6] = target: Fuc(a1-2)Gal(b1-4)GlcNAc6S
Outline: as §1

[7] = target: Fuc(a1-2)Gal(b1-4)[Fuc(a1-3)]GlcNAc
Outline: as §1

[8] = target: Fuc(a1-2)Gal(b1-4)[Fuc(a1-3)]GlcNAc(b1-2)Man(a1-3)[Fuc(a1-2)Gal(b1-4)[Fuc(a1-3)]GlcNAc(b1-2)Man(a1-6)]Man(b1-4)GlcNAc(b1-4)[Fuc(a1-6)]GlcNAc
Outline: as §1

[9] = target: Fuc(a1-2)Gal(b1-4)[Fuc(a1-3)]GlcNAc(b1-2)[Fuc(a1-2)Gal(b1-4)[Fuc(a1-3)]GlcNAc(b1-4)]Man(a1-3)[Fuc(a1-2)Gal(b1-4)[Fuc(a1-3)]GlcNAc(b1-2)Man(a1-6)]Man(b1-4)GlcNAc(b1-4)GlcNAc
Outline: as §1

[10] = target: Fuc(a1-2)Gal(b1-4)[Fuc(a1-3)]GlcNAc(b1-3)Gal(b1-4)[Fuc(a1-3)]GlcNAc
Outline: as §1

[11] = target: Fuc(a1-2)Gal(b1-4)[Fuc(a1-3)]GlcNAc(b1-3)Gal(b1-4)[Fuc(a1-3)]GlcNAc(b1-3)Gal(b1-4)[Fuc(a1-3)]GlcNAc
Outline: as §1

[12] = target: Fuc(a1-2)Gal(b1-4)[Fuc(a1-3)]GlcNAc(b1-3)GalNAc
Outline: as §1

[13] = target: Fuc(a1-2)Gal(b1-4)[Fuc(a1-3)]GlcNAc(b1-3)[Neu5Ac(a2-6)Gal(b1-4)GlcNAc(b1-6)]Gal(b1-4)Glc
Outline: as §1

[14] = target: Fuc(a1-2)Gal3S(b1-4)GlcNAc
Outline: as §1

[15] = target: Fuc(a1-2)Gal6S(b1-3)GlcNAc
Outline: as §1

[16] = target: Fuc(a1-2)Gal6S(b1-3)GlcNAc6S
Outline: as §1

Fuc(a1-2)Gal6S(b1-4)Glc = target: Fuc(a1-2)Gal6S(b1-4)Glc
Outline: as §1

[17] = target: Fuc(a1-2)Gal6S(b1-4)Glc6S
Outline: as §1

Fuc(a1-2)[Gal(a1-3)]Gal = target: Fuc(a1-2)[Gal(a1-3)]Gal
Outline: as §1

[18] = target: Fuc(a1-2)[Gal(a1-3)]Gal(b1-3)GalNAc
Outline: as §1

[19] = target: Fuc(a1-2)[Gal(a1-3)]Gal(b1-3)GalNAc(b1-3)Gal(a1-4)Gal(b1-4)Glc
Outline: as §1

[20] = target: Fuc(a1-2)[Gal(a1-3)]Gal(b1-3)GlcNAc
Outline: as §1

[21] = target: Fuc(a1-2)[Gal(a1-3)]Gal(b1-3)GlcNAc(b1-2)Man(a1-3)[Fuc(a1-2)[Gal(a1-3)]Gal(b1-3)GlcNAc(b1-2)Man(a1-6)]Man(b1-4)GlcNAc(b1-4)GlcNAc
Outline: as §1

[22] = target: Fuc(a1-2)[Gal(a1-3)]Gal(b1-3)GlcNAc(b1-2)Man(a1-3)[Fuc(a1-2)[Gal(a1-3)]Gal(b1-3)GlcNAc(b1-2)Man(a1-6)]Man(b1-4)GlcNAc(b1-4)[Fuc(a1-6)]GlcNAc
Outline: as §1

[23] = target: Fuc(a1-2)[Gal(a1-3)]Gal(b1-3)GlcNAc(b1-3)GalNAc
Outline: as §1

[24] = target: Fuc(a1-2)[Gal(a1-3)]Gal(b1-3)GlcNAc(b1-6)GalNAc
Outline: as §1

[25] = target: Fuc(a1-2)[Gal(a1-3)]Gal(b1-4)Glc
Outline: as §1

[26] = target: Fuc(a1-2)[Gal(a1-3)]Gal(b1-4)GlcNAc
Outline: as §1

[27] = target: Fuc(a1-2)[Gal(a1-3)]Gal(b1-4)GlcNAc(b1-2)Man
Outline: as §1

[28] = target: Fuc(a1-2)[Gal(a1-3)]Gal(b1-4)GlcNAc(b1-2)Man(a1-3)[Fuc(a1-2)[Gal(a1-3)]Gal(b1-4)GlcNAc(b1-2)Man(a1-6)]Man(b1-4)GlcNAc(b1-4)GlcNAc
Outline: as §1

B1: Thrombomodulin Extracellular (Mus musculus), P15306 (protein)
chain: MLGIFFLGVLAPASLGLSALAKLQPTGSQCVEHECFALFQGPATFLDASQACQRLQGHLMTVRSSVAADVISLLLSQSSMDLGPWIGLQLPQGCDDPVHLGPLRGFQWVTGDNHTSYSRWARPNDQTAPLCGPLCVTVSTATEAAPGEPAWEEKPCETETQGFLCEFYFTASCRPLTVNTRDPEAAHISSTYNTPFGVSGADFQTLPVGSSAAVEPLGLELVCRAPPGTSEGHWAWEATGAWNCSVENGGCEYLCNRSTNEPRCLCPRDMDLQADGRSCARPVVQSCNELCEHFCVSNAEVPGSYSCMCETGYQLAADGHRCEDVDDCKQGPNPCPQLCVNTKGGFECFCYDGYELVDGECVELLDPCFGSNCEFQCQPVSPTDYRCICAPGFAPKPDEPHKCEMFCNETSCPADCDPNSPTVCECPEGFILDEGSVCTDIDECSQGECFTSECRNFPGSYECICGPDTALAGQISKDCDPIPVREDTKEEEGSGEPPVSPTPGSPTGPPSARPVHSGVLIGISIASLSLVVALLALLCHLRKKQGAARAELEYKCASSAKEVVLQHVRTDRTLQKF
glycan array binding signal (z-score) [1]: 1.35 | glycan array binding signal (z-score) [2]: -0.122 | glycan array binding signal (z-score) [3]: -0.15 | glycan array binding signal (z-score) [4]: -0.041 | glycan array binding signal (z-score) [5]: 0.42 | glycan array binding signal (z-score) [6]: -0.316 | glycan array binding signal (z-score) [7]: -0.221 | glycan array binding signal (z-score) [8]: 0.306 | glycan array binding signal (z-score) [9]: 0.263 | glycan array binding signal (z-score) [10]: 0.048 | glycan array binding signal (z-score) [11]: -0.583 | glycan array binding signal (z-score) [12]: -1.31 | glycan array binding signal (z-score) [13]: -0.768 | glycan array binding signal (z-score) [14]: 0.293 | glycan array binding signal (z-score) [15]: -0.762 | glycan array binding signal (z-score) [16]: 0.426 | glycan array binding signal (z-score) (Fuc(a1-2)Gal6S(b1-4)Glc): -0.087 | glycan array binding signal (z-score) [17]: -1.94 | glycan array binding signal (z-score) (Fuc(a1-2)[Gal(a1-3)]Gal): -1.03 | glycan array binding signal (z-score) [18]: 0.064 | glycan array binding signal (z-score) [19]: 1.38 | glycan array binding signal (z-score) [20]: -0.769 | glycan array binding signal (z-score) [21]: 1.45 | glycan array binding signal (z-score) [22]: -0.667 | glycan array binding signal (z-score) [23]: 2.8 | glycan array binding signal (z-score) [24]: 0.083 | glycan array binding signal (z-score) [25]: 0.397 | glycan array binding signal (z-score) [26]: 0.952 | glycan array binding signal (z-score) [27]: 1.75 | glycan array binding signal (z-score) [28]: -0.282
